The record followed here is doi:10.1101/2022.03.02.482654.

The chains behind the UniProt entries cited, without tags or fusion partners.
UniProt Q9SR02: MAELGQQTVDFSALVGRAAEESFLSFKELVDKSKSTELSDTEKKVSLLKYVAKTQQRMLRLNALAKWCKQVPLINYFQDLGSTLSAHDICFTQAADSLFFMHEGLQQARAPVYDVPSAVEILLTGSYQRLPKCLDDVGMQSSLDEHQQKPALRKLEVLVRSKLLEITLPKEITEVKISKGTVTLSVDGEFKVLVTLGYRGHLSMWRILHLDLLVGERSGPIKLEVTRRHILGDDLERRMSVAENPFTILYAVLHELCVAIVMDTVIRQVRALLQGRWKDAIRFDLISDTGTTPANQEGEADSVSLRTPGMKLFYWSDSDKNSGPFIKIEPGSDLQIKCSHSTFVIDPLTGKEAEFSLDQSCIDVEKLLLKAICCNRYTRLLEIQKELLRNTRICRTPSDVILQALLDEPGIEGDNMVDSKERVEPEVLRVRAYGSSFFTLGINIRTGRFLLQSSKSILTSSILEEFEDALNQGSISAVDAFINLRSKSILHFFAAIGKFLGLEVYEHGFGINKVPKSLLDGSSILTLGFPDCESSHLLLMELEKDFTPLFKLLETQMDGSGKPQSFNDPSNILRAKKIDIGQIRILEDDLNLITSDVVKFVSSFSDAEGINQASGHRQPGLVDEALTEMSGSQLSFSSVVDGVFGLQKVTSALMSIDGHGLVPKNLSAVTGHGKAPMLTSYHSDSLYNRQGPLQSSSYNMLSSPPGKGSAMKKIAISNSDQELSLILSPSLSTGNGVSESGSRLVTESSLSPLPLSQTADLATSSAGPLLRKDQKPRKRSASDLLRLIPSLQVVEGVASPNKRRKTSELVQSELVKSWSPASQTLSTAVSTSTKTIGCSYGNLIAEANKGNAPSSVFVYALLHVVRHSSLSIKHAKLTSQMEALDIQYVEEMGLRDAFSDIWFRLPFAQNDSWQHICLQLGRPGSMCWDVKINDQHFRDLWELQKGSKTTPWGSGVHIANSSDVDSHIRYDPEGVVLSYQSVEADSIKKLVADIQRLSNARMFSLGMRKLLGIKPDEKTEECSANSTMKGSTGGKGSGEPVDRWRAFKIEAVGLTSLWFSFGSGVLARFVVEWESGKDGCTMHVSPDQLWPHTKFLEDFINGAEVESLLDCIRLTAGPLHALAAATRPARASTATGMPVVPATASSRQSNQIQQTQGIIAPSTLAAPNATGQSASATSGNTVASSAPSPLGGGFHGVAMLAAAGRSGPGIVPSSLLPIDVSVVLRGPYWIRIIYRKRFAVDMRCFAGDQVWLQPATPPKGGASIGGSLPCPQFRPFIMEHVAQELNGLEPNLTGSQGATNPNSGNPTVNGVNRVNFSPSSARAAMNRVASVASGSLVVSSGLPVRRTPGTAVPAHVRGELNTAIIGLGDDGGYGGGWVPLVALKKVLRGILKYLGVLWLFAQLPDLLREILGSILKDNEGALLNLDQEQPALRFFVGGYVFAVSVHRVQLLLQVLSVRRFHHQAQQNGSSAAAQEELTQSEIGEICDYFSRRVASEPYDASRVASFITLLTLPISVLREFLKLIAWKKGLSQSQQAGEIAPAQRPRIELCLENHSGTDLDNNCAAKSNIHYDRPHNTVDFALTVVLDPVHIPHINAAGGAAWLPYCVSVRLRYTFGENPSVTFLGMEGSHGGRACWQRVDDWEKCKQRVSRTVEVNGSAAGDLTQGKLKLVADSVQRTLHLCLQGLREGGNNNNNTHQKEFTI

These are yes or no findings as the source states them, for the method shown. Binding seen in cells or lysates may run through a third protein. Some entries that bind do so weakly or less than the wild type. Sequences can lack the tags named with a protein.

Assay [1] has as its target T1, GST-PIF4 (PHYTOCHROME-… FACTOR 4) (Arabidopsis thaliana) (UniProt Q8W2F3).
T1 sequence: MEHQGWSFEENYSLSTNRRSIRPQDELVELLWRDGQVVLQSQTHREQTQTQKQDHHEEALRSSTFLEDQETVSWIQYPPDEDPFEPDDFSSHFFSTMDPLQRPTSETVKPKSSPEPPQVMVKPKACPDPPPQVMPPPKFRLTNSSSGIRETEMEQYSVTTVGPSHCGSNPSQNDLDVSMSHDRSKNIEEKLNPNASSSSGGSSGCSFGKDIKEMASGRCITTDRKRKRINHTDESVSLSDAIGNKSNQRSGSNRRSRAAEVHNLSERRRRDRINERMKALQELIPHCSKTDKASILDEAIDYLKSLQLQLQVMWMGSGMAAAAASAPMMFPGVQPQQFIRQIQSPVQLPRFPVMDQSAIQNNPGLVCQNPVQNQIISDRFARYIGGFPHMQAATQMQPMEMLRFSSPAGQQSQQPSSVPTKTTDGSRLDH
The assay is described as follows: pull-down.

Assay [2] concerns the target T2, PIF4 fused with NmVenus210 (Arabidopsis thaliana) (UniProt Q8W2F3).
T2 sequence: T1 sequence
Nature of the assay: split reporter.

Consider HA-MED14 (from UniProt Q9SR02 1-1703), for which, in assay [1], the binding entry is listed as “binds”. Take “MED14 fused with cVenus210 (from UniProt Q9SR02 1-1703)”: in assay [2], the binding result is “binds”.
